Laboratory results as given in PubChem BioAssay AID330 (DTP/NCI, 2004).
The list is a part of this screen's results and no random one: it gathers tests that were run many times, whatever their T/C, doses with no T/C, and many T/C values between a quarter and a half above the control. Other doses and runs of a compound stand elsewhere. T/C is the treated group as % of the vehicle group. Some entries give survivors of the animals treated and no T/C: the source holds a T/C of zero for them, seemingly a mark for toxic or unscored doses. Some doses without a T/C left all or most animals alive at the check, yet need not have been tolerated: survival well below the control is almost never listed, so the zero probably covers shortened survival too. Survivors were counted at the toxicity check, usually on the fifth day, unless a day is given; later deaths do not show. Schedule codes are those of the source, read here as Q, the interval in days (D) or hours (H), X, the number of doses. Some entries hold several experiments; the results are listed from low to high. Where survival is the endpoint, the PubChem record calls one and a half times the control and up active, and a quarter to a half above the control has no call in these data; cut-offs in other NCI protocols can differ.

Test system: P388 leukemia ip, CD2F1 mice, survival T/C
Test: NCI In Vivo Anticancer Drug Screen. Data for tumor model P388 Leukemia (intraperitoneal) in CD2F1 (CDF1) mice
Details: T/C endpoint: median survival time, higher T/C = longer survival
[1] = dose: 200.0 mg/kg/injection, schedule: Q04DX003 (ip), vehicle: saline
[2] = dose: 400.0 mg/kg/injection, schedule: Q04DX003 (ip), vehicle: saline
[3] = dose: 100.0 mg/kg/injection, schedule: Q04DX002 (ip), vehicle: saline with Tween-80
[4] = dose: 400.0 mg/kg/injection, schedule: Q01DX009 (ip), vehicle: other
[5] = dose: 240.0 mg/kg/injection, schedule: Q01DX005 (ip), vehicle: Klucel (hydroxypropylcellulose) (HPC)
[6] = dose: 50.0 mg/kg/injection, schedule: Q01DX009 (ip), vehicle: saline

With `Cc1ccc(S(=O)(=O)C[n+]2ccc3ccccc3c2)cc1` the T/C [1] was 141 % of control, the T/C [2] was 147 % of control and the survivor count [2] was 4 of 6.

`CCN1CCC[C@]2(C)[C@H]3CC[C@@]4(C)[C@@H](CC[C@]4(C)O)[C@@H]3CC[C@@H]12` was tested, and the survivor count (dose: 100.0 mg/kg/injection, schedule: Q01DX005 (ip), vehicle: Klucel (hydroxypropylcellulose) (HPC)) was 0 of 6 and the survivor count (dose: 200.0 mg/kg/injection, schedule: Q01DX005 (ip), vehicle: Klucel (hydroxypropylcellulose) (HPC)) was 0 of 6.

For `CCC/C(=N\N=C(N)N)c1ccc(Cl)cc1`, the survivor count (dose: 50.0 mg/kg/injection, schedule: Q04DX002 (ip), vehicle: saline with Tween-80) was 0 of 6 and the survivor count [3] was 1 of 6.

For `Cc1nc(C(=O)O)cc([N+](=O)[O-])c1C`, the survivor count [4] was 0 of 6.

In the case of `O=C(Cn1cnc2ccc([N+](=O)[O-])cc21)N1CCN(c2ccccc2)CC1`, the survivor count (dose: 240.0 mg/kg/injection, schedule: Q01DX005 (ip), vehicle: saline with Tween-80) is reported as 6 of 6.

For `S=C1SCCCN1c1ccccc1`, the survivor count (dose: 400.0 mg/kg/injection, schedule: Q04DX003 (ip), vehicle: Klucel (hydroxypropylcellulose) (HPC)) was 0 of 6.

With `CN1CCCC(Cl)(C(=O)c2ccccc2)C1` (stereo not given) the survivor count [2] was 1 of 6.

For `N=C(N)c1ccc2cc(C(=N)N)[nH]c2c1`, the survivor count (dose: 100.0 mg/kg/injection, schedule: Q04DX003 (ip), vehicle: saline) was 0 of 6, the survivor count [1] was 0 of 6 and the survivor count [2] was 0 of 6.

With `CN=C(N)N/N=C(\C)c1ccc(-c2ccccc2)cc1` the survivor count [3] was 1 of 6.

With `CC(C)CC1N=C(NN=C2CCCCC2)SP1(=O)NNc1ncccn1` (stereo not given) the survivor count [5] was 0 of 6.

With `S=c1nc2ccccn2c(=S)n1-c1ccccn1` the survivor count (dose: 200.0 mg/kg/injection, schedule: Q04DX003 (ip), vehicle: saline with Tween-80) was 3 of 6 and the survivor count (dose: 400.0 mg/kg/injection, schedule: Q04DX003 (ip), vehicle: saline with Tween-80) was 1 of 6.

For `Cc1ccc(NCCN(C)C)c2c(=O)c3ccc(O)cc3sc12`, the T/C (dose: 200.0 mg/kg/injection, schedule: Q01DX009 (ip), vehicle: saline with Tween-80) was 126 % of control.

For `CC1=C2C(=CO[C@H](C)[C@H]2C)C(=O)C(C(=O)O)=C1O`, the T/C (dose: 25.0 mg/kg/injection, schedule: Q01DX009 (ip), vehicle: saline) was 136 % of control, the survivor count (dose: 50.0 mg/kg/injection, schedule: Q01DX009 (ip), vehicle: Klucel (hydroxypropylcellulose) (HPC)) was 2 of 6 and the T/C [6] was 128 % of control.

In the case of `Nc1ccc(Cl)cc1N`, the survivor count [4] is reported as 0 of 6 and the survivor count (dose: 400.0 mg/kg/injection, schedule: Q01DX009 (ip), vehicle: saline with Tween-80) is reported as 0 of 6 and 5 of 6.

For `COC1=C(C#N)C(c2ccccc2)CC(N)=N1` (stereo not given), the survivor count [5] was 1 of 6.

In the case of `CC(=O)c1c(O)cc2c(c1O)C1CC(C)(CCC1=C(C)C)O2` (stereo not given), the survivor count [6] is reported as 6 of 6.

`CCCCCCc1c(C#N)c(S)[nH]c(=S)c1C#N` was tested, and the survivor count (dose: 100.0 mg/kg/injection, schedule: Q01DX009 (ip), vehicle: saline) was 3 of 6 and the survivor count (dose: 200.0 mg/kg/injection, schedule: Q01DX009 (ip), vehicle: saline) was 0 of 6.

With `CS(=O)(=O)Nc1ccc(Nc2c3ccccc3nc3cc([N+](=O)[O-])ccc23)cc1` the T/C (dose: 0.18 mg/kg/injection, schedule: Q01DX009 (ip), vehicle: saline with Tween-80) was 132 % of control and the T/C (dose: 0.37 mg/kg/injection, schedule: Q01DX009 (ip), vehicle: saline with Tween-80) was 134 % of control.
